These results are taken from patent US20250368742A1.

Protein sequences, listed by entry. Tags and fused reporters are not part of them. Lines headed by an entry give the natural chain unless they say otherwise; changes in a name come on top. Residues count along the entry.
UniProt P26718, residues 78-216: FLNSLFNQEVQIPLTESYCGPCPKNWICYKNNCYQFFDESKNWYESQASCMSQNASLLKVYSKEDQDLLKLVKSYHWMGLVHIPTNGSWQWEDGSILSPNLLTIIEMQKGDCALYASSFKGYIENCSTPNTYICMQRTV
UniProt Q29983: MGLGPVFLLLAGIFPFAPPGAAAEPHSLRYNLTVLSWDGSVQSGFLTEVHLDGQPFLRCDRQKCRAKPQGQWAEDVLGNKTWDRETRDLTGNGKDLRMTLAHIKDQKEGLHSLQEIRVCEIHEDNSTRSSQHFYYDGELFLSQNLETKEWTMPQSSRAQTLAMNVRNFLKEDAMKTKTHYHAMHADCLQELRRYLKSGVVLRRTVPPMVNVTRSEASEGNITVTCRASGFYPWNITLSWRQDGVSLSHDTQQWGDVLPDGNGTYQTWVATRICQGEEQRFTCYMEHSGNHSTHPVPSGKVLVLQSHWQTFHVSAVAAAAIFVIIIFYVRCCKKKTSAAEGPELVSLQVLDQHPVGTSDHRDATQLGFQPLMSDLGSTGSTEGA

These are yes or no findings as the source states them, for the method shown. A result given as binding can be weak or reduced; the word gives no strength.

In assay [1] the target is NKG2D-His (UniProt P26718). As to the kind of experiment: ELISA, antibody-captured shed MICA002, NKG2D-His detected with anti-His-HRP, FIG. 10B. (ELISA stands for enzyme-linked immunosorbent assay.)
Assay [2] concerns the target NKG2D-His (UniProt P26718). Description: ELISA, FIG. 10B.
The target in assay [3] is NKG2D-His (UniProt P26718). Description: ELISA, antibody-captured shed MICA004, NKG2D-His detected with anti-His-HRP, FIG. 10C.
Assay [4] concerns the target NKG2D-His (UniProt P26718). As to the kind of experiment: ELISA, FIG. 10C.

Regarding “shed MICA002 polypeptide (from UniProt Q29983) (ligand)”, the binding entry in the assay with NKG2D-His [1] and in the assay with NKG2D-His [2] was “binds” each time.

As to “shed MICA004 polypeptide (from UniProt Q29983) (ligand)”, the binding entry in the assay with NKG2D-His [3] and in the assay with NKG2D-His [4] was “binds” each time.
